# ± gives the standard deviation of the averaged measurements. This is one part of the list.
# Sequences of proteins named here, by UniProt entry; tags and fusion partners are left off. A change or cut given only in a name is not applied to a line headed by its entry.
# UniProt Q9UBS4: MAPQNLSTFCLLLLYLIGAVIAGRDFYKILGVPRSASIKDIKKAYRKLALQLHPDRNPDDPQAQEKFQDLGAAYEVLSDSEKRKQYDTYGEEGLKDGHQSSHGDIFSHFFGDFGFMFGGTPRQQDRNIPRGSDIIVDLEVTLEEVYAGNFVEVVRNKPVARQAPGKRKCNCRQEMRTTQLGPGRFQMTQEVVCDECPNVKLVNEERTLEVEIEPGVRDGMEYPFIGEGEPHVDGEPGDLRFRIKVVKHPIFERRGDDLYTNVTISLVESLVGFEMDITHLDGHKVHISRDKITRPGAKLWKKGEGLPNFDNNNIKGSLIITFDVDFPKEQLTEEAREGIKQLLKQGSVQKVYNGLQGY
# UniProt Q9NZW5: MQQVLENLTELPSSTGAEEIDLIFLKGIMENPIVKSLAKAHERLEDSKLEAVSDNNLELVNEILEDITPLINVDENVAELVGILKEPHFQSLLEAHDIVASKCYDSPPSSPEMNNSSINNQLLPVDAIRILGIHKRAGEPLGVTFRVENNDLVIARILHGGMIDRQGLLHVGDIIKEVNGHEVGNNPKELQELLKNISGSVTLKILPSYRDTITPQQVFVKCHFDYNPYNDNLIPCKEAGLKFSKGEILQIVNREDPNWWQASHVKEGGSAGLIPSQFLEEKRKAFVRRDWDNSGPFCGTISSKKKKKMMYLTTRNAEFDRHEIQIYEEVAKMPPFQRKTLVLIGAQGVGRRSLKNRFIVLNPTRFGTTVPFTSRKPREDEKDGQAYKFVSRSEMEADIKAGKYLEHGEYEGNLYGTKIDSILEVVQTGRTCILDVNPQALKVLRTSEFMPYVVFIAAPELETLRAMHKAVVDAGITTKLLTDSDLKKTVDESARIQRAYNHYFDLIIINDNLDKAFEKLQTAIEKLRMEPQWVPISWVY
# UniProt Q9NXV2: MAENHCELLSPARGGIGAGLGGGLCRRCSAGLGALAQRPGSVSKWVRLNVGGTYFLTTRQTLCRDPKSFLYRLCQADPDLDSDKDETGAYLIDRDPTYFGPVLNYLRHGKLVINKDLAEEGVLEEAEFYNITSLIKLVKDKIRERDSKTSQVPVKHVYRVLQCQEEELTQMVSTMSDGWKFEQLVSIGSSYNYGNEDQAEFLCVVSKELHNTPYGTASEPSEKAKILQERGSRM
# UniProt Q9UBP6: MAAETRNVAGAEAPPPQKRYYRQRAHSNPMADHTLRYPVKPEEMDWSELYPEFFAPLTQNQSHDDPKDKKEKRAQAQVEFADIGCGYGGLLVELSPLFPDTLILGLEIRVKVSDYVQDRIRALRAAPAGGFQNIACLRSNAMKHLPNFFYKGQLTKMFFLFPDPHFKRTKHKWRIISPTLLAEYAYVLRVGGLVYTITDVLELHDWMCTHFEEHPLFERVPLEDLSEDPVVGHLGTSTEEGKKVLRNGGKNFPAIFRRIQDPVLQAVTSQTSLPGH
# Compound: Nc1nc2c(ncn2[C@@H]2O[C@H](COP(=O)(O)OP(=O)(O)OP(=O)(O)O)[C@@H](O)[C@H]2O)c(=O)[nH]1 [guanosine triphosphate]
# Assay: NP40-soluble protein abundance relative to vehicle (solubility fold change) (ratio); higher = more soluble protein in presence of GTP
# Procedure: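 Solubility proteome profiling in Jurkat crude lysate. Lysate was treated with Mg-GTP (0.1-10 mM) for 10 min at room temperature and 3 min at 37 °C, then solubilised with 0.8% NP40 and benzonase, followed by ultracentrifugation. Proteins were quantified by TMT10 LC-MS/MS; the value is the NP40-soluble abundance relative to the NP40-processed vehicle, from 3 independent experiments.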
Target,NP40-soluble protein abundance (concentration: 0.1mM),NP40-soluble protein abundance (concentration: 0.5mM),NP40-soluble protein abundance (concentration: 1mM),NP40-soluble protein abundance (concentration: 2mM),NP40-soluble protein abundance (concentration: 4mM),NP40-soluble protein abundance (concentration: 6mM),NP40-soluble protein abundance (concentration: 8mM),NP40-soluble protein abundance (concentration: 10mM)
DNAJB11 (UniProt Q9UBS4),1.01 ± 0.027,1.02 ± 0.048,1.03 ± 0.059,1 ± 0.048,1.01 ± 0.051,1.02 ± 0.046,1.005 ± 0.0044,0.982 ± 0.029
MPP6 (UniProt Q9NZW5),1.05 ± 0.033,1.04 ± 0.031,0.9523 ± 0.0041,0.946 ± 0.022,0.974 ± 0.036,0.933 ± 0.033,0.938 ± 0.02,0.902 ± 0.08
KCTD5 (UniProt Q9NXV2),0.981 ± 0.032,0.964 ± 0.027,0.973 ± 0.021,0.95 ± 0.041,0.96 ± 0.052,0.996 ± 0.025,0.958 ± 0.031,0.938 ± 0.042
MRTO4 (UniProt Q9UKD2),1.04 ± 0.025,1.08 ± 0.059,1 ± 0.035,1.03 ± 0.02,0.979 ± 0.06,0.984 ± 0.037,0.966 ± 0.071,0.95 ± 0.071
METTL1 (UniProt Q9UBP6),0.998 ± 0.11,0.961 ± 0.15,0.967 ± 0.083,0.945 ± 0.14,1 ± 0.092,0.924 ± 0.13,0.96 ± 0.13,0.952 ± 0.1

# — the supplement of paper PMC6411743
